{"source": "PubChem BioAssay AID1259308 (NCATS, 2017)", "screen": "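Candidate targets for better recombinant protein yield in mammalian cells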 (primary screen)", "cells": "human HEK293 embryonic kidney cells stably expressing firefly luciferase (HEK-CMV-Luc2-Hygro)", "knock-down reagent": "single siRNA against human genes, 0.8 pmol siRNA per well", "duration": "72 h", "read-out": "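Luciferase light (ONE-Glo) measured on one replicate plate set and viability (CellTiter-Glo) on the other, scaled to a negative control siRNA, with robust z-scores and luciferase per cell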", "reading the numbers": "total luciferase, z-score: higher = more reporter protein produced", "rule for the call": "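Active when the median/MAD z-score for overall luciferase is greater than 3; a gene was taken forward for validation with new siRNAs if at least two of its three siRNAs passed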", "meaning of the calls": "active = raised luciferase; inactive = no rise", "note": "The deposit covers about 59,000 reagents; this is a random part of them. Of all reagents, about 1,510 (2.6%) got an active call. 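Calls use total luciferase alone and ignore viability, so some active siRNAs may act by altering cell number.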 A number with no mark means an inactive call. Further read-outs or replicates are left out here."}
{"target": "MFAP4", "PubChem SID": "SID160777187", "total luciferase, z-score": -1.04}
{"target": "MFAP4", "PubChem SID": "SID160777188", "total luciferase, z-score": -1.37}
{"target": "MFAP4", "PubChem SID": "SID160777189", "total luciferase, z-score": 1.36}
{"target": "FUZ", "PubChem SID": "SID160750193", "total luciferase, z-score": -0.251}
{"target": "FUZ", "PubChem SID": "SID160750194", "total luciferase, z-score": -1.1}
{"target": "FUZ", "PubChem SID": "SID160750195", "total luciferase, z-score": -1.16}
{"target": "ZNF347", "PubChem SID": "SID160752563", "total luciferase, z-score": -0.544}
{"target": "ZNF347", "PubChem SID": "SID160752564", "total luciferase, z-score": -0.906}
{"target": "ZNF347", "PubChem SID": "SID160752565", "total luciferase, z-score": -0.123}
{"target": "RTN4RL1", "PubChem SID": "SID160758410", "total luciferase, z-score": -1.55}
{"target": "RTN4RL1", "PubChem SID": "SID160758411", "total luciferase, z-score": -0.681}
{"target": "RTN4RL1", "PubChem SID": "SID160758412", "total luciferase, z-score": -0.699}
{"target": "PSMD11", "PubChem SID": "SID160715258", "total luciferase, z-score": 0.857}
{"target": "PSMD11", "PubChem SID": "SID160715259", "total luciferase, z-score": -0.908}
{"target": "PSMD11", "PubChem SID": "SID160715260", "total luciferase, z-score": 0.665}
{"target": "SALL1", "PubChem SID": "SID160716335", "total luciferase, z-score": -0.0249}
{"target": "SALL1", "PubChem SID": "SID160716336", "total luciferase, z-score": -0.361}
{"target": "SALL1", "PubChem SID": "SID160716337", "total luciferase, z-score": 2.69}
{"target": "GTF2H2B", "PubChem SID": "SID160728026", "total luciferase, z-score": 1.52}
{"target": "GTF2H2B", "PubChem SID": "SID160728027", "total luciferase, z-score": 0.858}
{"target": "GTF2H2B", "PubChem SID": "SID160728028", "total luciferase, z-score": 0.357}
